Results taken from publication PMC7205425.
These are yes or no findings as the source states them, for the method shown. Binding seen in cells or lysates may run through a third protein. A result given as binding can be weak or reduced; the word gives no strength. Sequences can lack the tags named with a protein.

Molecular target: T1, G protein subunit α 11 (Gα11), myc-tagged (mouse) (UniProt P21278)
T1 sequence: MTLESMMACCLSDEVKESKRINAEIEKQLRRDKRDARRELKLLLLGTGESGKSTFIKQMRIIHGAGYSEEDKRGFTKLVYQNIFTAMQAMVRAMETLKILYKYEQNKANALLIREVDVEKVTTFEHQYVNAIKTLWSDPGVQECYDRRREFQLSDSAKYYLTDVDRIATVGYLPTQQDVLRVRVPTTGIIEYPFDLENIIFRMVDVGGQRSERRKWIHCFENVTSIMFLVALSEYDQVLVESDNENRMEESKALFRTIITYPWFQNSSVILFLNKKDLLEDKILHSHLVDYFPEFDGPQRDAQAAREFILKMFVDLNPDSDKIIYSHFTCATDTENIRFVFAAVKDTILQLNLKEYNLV
Experiment: co-IP; HEK293T cells transiently cotransfected; native lysis solution (1% Triton X-100, 150 mM NaCl, 10 mM Tris-HCl pH 7.5, 1 mM EDTA, 1 mM EGTA, 0.5% Igepal, 10% sucrose), 4°C; Gα11 immunoprecipitated with anti-myc, GαS with anti-GαS; TRPC1 detected in the complexes with 1F1

Substance | binding
long form of TRPC1α (mouse) | binds
short form of TRPC1ε (mouse) | binds
long form of TRPC1ε (mouse) | binds
